Consider 17 compounds from PubChem BioAssay AID192 (DTP/NCI, 2004).

The subject of this experiment is BDF1 mice, B16 melanoma ip, median survival T/C. Kind of experiment: NCI In Vivo Anticancer Drug Screen. Data for tumor model B16 Melanoma (intraperitoneal) in B6D2F1 (BDF1) mice. As to conditions: T/C endpoint: median survival time, higher T/C = longer survival. An outline of the steps:
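Antitumor activity is assessed in mice bearing a transplanted tumor, with survival or tumor size compared against vehicle-dosed controls and expressed as T/C.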

Where [1] appears, read: dose: 50.0 mg/kg/injection, schedule: Q01DX009 (ip), vehicle: Klucel (hydroxypropylcellulose) (HPC).
[2] abbreviates: dose: 50.0 mg/kg/injection, schedule: Q01DX009 (ip), vehicle: saline with Tween-80.
Setting [3] is: dose: 100.0 mg/kg/injection, schedule: Q01DX009 (ip), vehicle: saline with Tween-80.
Where [4] appears, read: dose: 200.0 mg/kg/injection, schedule: Q01DX009 (ip), vehicle: saline with Tween-80.
Where [5] appears, read: dose: 400.0 mg/kg/injection, schedule: Q01DX009 (ip), vehicle: Klucel (hydroxypropylcellulose) (HPC).
Setting [6] is: dose: 400.0 mg/kg/injection, schedule: Q01DX009 (ip), vehicle: saline with Tween-80.

Structures are written as SMILES. The list is a part of this screen's results and no random one: it is rich in T/C values a quarter to a half above the control, in often repeated tests (any T/C) and in doses without a T/C. Other doses and runs of a compound stand elsewhere. T/C gives the treated animals as a percentage of the vehicle group. Some doses have a count of surviving animals in place of a T/C: the source holds a T/C of zero for them, seemingly a mark for toxic or unscored doses. Some survivor counts are full or nearly so, which does not show that the dose was tolerated: the source hardly ever lists a survival T/C far under the control, and the zero likely stands for such cases as well. Counts of survivors are from the toxicity check (mostly the fifth day) where no day follows; animals may have died later. Schedules are NCI's codes, taken here to give the interval after Q, in days (D) or hours (H), and the number of doses after X. Some doses were run more than once; their values stand side by side, smallest first. Where survival is the endpoint, this PubChem deposit counts one and a half times the control or more as active, and values a quarter to a half above the control carry no call in these data; other NCI protocols may use other cut-offs. Some T/C values carry the count of animals alive at the toxicity check (mostly the fifth day); where none is given, no animal had died by that day.

For the compound `ClCCN(CCCl)CCCN1c2ccccc2Sc2ccc(Cl)cc21`, the T/C (dose: 6.25 mg/kg/injection, schedule: Q01DX009 (ip), vehicle: saline with Tween-80) is 138 % of control. The survivor count is 2 of 10 (dose: 35.0 mg/kg/injection, schedule: Q01DX009 (ip), vehicle: saline with Tween-80); 0 of 10 (dose: 55.0 mg/kg/injection, schedule: Q01DX009 (ip), vehicle: saline with Tween-80); 1 of 10 (dose: 80.0 mg/kg/injection, schedule: Q01DX009 (ip), vehicle: saline with Tween-80).
For the compound `CC(=O)[O][Hg][c]1c(C)c(C)c(C)c(C)c1C`, the survivor count runs as follows: (dose: 25.0 mg/kg/injection, schedule: Q01DX009 (ip), vehicle: Klucel (hydroxypropylcellulose) (HPC)) 10 of 10; under setting [1], 9 of 10.
As for `O=C(Nc1ccc2c(c1)OCO2)O/N=C1\C(=O)Nc2ccccc21`, the T/C is, setting by setting: (dose: 50.0 mg/kg/injection, schedule: Q04DX003 (ip), vehicle: saline) 138 % of control; (dose: 100.0 mg/kg/injection, schedule: Q04DX003 (ip), vehicle: saline) 148 % of control.
Turning to `CC(=Nc1ccccc1)C1=C(O)C(Cc2ccc(O)cc2)NC1=O` (stereo not given), the T/C by setting is: (dose: 25.0 mg/kg/injection, schedule: Q01DX009 (ip), vehicle: saline with Tween-80, evaluated on day 50) 130 % of control; (dose: 25.0 mg/kg/injection, schedule: Q01DX009 (ip), vehicle: saline with Tween-80, evaluated on day 60) 128 % of control; under setting [2], 130 % of control. The survivor count runs as follows: under setting [2], 10 of 10; under setting [3], 7 of 10 and 10 of 10; under setting [4], 10 of 10.
With `CCCCNC(=O)Nc1ccc(CC)cc1`, the survivor count under setting [5] is on record as 6 of 10.
For the compound `CSc1nc(Cl)c(Br)c(Cl)n1`, the survivor count (dose: 25.0 mg/kg/injection, schedule: Q01DX009 (ip), vehicle: saline with Tween-80) is reported as 10 of 10; the survivor count under setting [2] is 8 of 10; the survivor count under setting [3] is given as 3 of 10; the survivor count under setting [4] is 0 of 10.
For the compound `CC1(C)NC(=O)C(/C=C/c2ccccc2)O1` (stereo not given), under setting [1], the T/C is 128 % of control. Further, the survivor count under setting [5] was 2 of 10.
With `CCCC(=O)OCc1ccc(Cl)c(Cl)c1`, the T/C (dose: 25.0 mg/kg/injection, schedule: Q04DX003 (ip), vehicle: saline with Tween-80) was 126 % of control.
Regarding `CCOP(=O)(N1CC1(C)C)N1CC1(C)C` (stereo not given), the T/C (dose: 50.0 mg/kg/injection, schedule: Q01DX009 (ip), vehicle: saline) is 136 % of control. In addition, the survivor count runs as follows: (dose: 80.0 mg/kg/injection, schedule: Q01DX009 (ip), vehicle: saline) 10 of 10; (dose: 120.0 mg/kg/injection, schedule: Q01DX009 (ip), vehicle: saline) 10 of 10.
For the compound `O=C(C=C(C(F)(F)Cl)C(F)(F)Cl)c1cccs1`, the survivor count is, setting by setting: (dose: 1.25 mg/kg/injection, schedule: Q01DX009 (ip), vehicle: saline) 10 of 10; (dose: 2.5 mg/kg/injection, schedule: Q01DX009 (ip), vehicle: saline with Tween-80) 10 of 10; (dose: 5.0 mg/kg/injection, schedule: Q01DX009 (ip), vehicle: saline with Tween-80) 4 of 10; (dose: 10.0 mg/kg/injection, schedule: Q01DX009 (ip), vehicle: saline with Tween-80) 2 of 10.
Turning to `O=C(Cn1cc(F)c(=O)[nH]c1=O)c1ccco1`, the survivor count under setting [5] is reported as 9 of 10.
For `C[n+]1c(-c2cccc3ccccc23)c2cc(N)ccc2c2ccccc21`, the survivor count (dose: 25.0 mg/kg/injection, schedule: Q01DX009 (ip), vehicle: water) is given as 5 of 10 and the survivor count (dose: 50.0 mg/kg/injection, schedule: Q01DX009 (ip), vehicle: water) was 0 of 10.
For the compound `CC(=O)Oc1ccc[nH]c1=O`, the survivor count (dose: 600.0 mg/kg/injection, schedule: Q01DX009 (ip), vehicle: saline with Tween-80) is reported as 8 of 10; the survivor count (dose: 800.0 mg/kg/injection, schedule: Q01DX009 (ip), vehicle: saline with Tween-80) was 8 of 10; the survivor count (dose: 1000.0 mg/kg/injection, schedule: Q01DX009 (ip), vehicle: saline with Tween-80) is listed as 3 of 10; the survivor count (dose: 1200.0 mg/kg/injection, schedule: Q01DX009 (ip), vehicle: saline with Tween-80) is on record as 2 of 10.
Turning to `COc1cccc2c1C(=O)c1c(O)c3c(c(O)c1C2=O)C[C@@](O)(C(C)=O)C[C@@H]3OC1CC(N(C)C)C(O)C(C)O1` (stereo not given in full), the T/C (dose: 2.5 mg/kg/injection, schedule: Q01DX001 (ip), vehicle: water) is 128 % of control; the T/C (dose: 5.0 mg/kg/injection, schedule: Q01DX001 (ip), vehicle: water, evaluated on day 50) was 103 % of control; the T/C (dose: 5.0 mg/kg/injection, schedule: Q01DX001 (ip), vehicle: water, evaluated on day 60) is 122, 124, 170 % of control [9 of 10 alive]; the T/C (dose: 9.6 mg/kg/injection, schedule: Q04DX003 (ip), vehicle: water) was 147 % of control; the T/C (dose: 10.0 mg/kg/injection, schedule: Q01DX001 (ip), vehicle: water, evaluated on day 50) was 121 % of control; the T/C (dose: 10.0 mg/kg/injection, schedule: Q01DX001 (ip), vehicle: water, evaluated on day 60) was 117, 128, 134 % of control. The T/C is 131 % of control (dose: 20.0 mg/kg/injection, schedule: Q01DX001 (ip), vehicle: water, evaluated on day 50); 127 % of control [9 of 10 alive] (dose: 20.0 mg/kg/injection, schedule: Q01DX001 (ip), vehicle: water, evaluated on day 60); 103 % of control (dose: 20.0 mg/kg/injection, schedule: Q01DX001 (ip), vehicle: water, evaluated on day 75). Moreover, the survivor count was 10 of 10 (dose: 16.0 mg/kg/injection, schedule: Q04DX003 (ip), vehicle: water); 8 of 10, 9 of 10, 10 of 10 (dose: 20.0 mg/kg/injection, schedule: Q01DX001 (ip), vehicle: water); 6 of 10 and 10 of 10 (dose: 33.3 mg/kg/injection, schedule: Q01DX001 (ip), vehicle: water); 3 of 10 and 10 of 10 (dose: 40.0 mg/kg/injection, schedule: Q01DX001 (ip), vehicle: water); 0 of 10 and 2 of 10 (dose: 80.0 mg/kg/injection, schedule: Q01DX001 (ip), vehicle: water).
As for `CCCn1c(=S)[nH]c2ccccc2c1=O`, the T/C under setting [3] was 125 % of control. Besides, the survivor count runs as follows: (dose: 200.0 mg/kg/injection, schedule: Q01DX009 (ip), vehicle: Klucel (hydroxypropylcellulose) (HPC)) 10 of 10; under setting [4], 6 of 6; under setting [5], 8 of 10; under setting [6], 5 of 6.
As to `Cc1ccn2ncnc2c1`, the survivor count (dose: 200.0 mg/kg/injection, schedule: Q01DX009 (ip), vehicle: saline) is on record as 8 of 10 and the survivor count (dose: 400.0 mg/kg/injection, schedule: Q01DX009 (ip), vehicle: saline) is given as 5 of 10.
Take `O=C(Oc1ccc(-c2ccc(Br)cc2)cc1)c1ccco1`: the survivor count is recorded as 10 of 10 under setting [3], 10 of 10 under setting [4] and 10 of 10 under setting [6].
